The values below come from PMC3311585.

By UniProt entry, the sequences of proteins in these tests, tags left out. Where a name states a change or a piece, a line headed by the entry shows the natural chain unless it says otherwise.
UniProt P08514: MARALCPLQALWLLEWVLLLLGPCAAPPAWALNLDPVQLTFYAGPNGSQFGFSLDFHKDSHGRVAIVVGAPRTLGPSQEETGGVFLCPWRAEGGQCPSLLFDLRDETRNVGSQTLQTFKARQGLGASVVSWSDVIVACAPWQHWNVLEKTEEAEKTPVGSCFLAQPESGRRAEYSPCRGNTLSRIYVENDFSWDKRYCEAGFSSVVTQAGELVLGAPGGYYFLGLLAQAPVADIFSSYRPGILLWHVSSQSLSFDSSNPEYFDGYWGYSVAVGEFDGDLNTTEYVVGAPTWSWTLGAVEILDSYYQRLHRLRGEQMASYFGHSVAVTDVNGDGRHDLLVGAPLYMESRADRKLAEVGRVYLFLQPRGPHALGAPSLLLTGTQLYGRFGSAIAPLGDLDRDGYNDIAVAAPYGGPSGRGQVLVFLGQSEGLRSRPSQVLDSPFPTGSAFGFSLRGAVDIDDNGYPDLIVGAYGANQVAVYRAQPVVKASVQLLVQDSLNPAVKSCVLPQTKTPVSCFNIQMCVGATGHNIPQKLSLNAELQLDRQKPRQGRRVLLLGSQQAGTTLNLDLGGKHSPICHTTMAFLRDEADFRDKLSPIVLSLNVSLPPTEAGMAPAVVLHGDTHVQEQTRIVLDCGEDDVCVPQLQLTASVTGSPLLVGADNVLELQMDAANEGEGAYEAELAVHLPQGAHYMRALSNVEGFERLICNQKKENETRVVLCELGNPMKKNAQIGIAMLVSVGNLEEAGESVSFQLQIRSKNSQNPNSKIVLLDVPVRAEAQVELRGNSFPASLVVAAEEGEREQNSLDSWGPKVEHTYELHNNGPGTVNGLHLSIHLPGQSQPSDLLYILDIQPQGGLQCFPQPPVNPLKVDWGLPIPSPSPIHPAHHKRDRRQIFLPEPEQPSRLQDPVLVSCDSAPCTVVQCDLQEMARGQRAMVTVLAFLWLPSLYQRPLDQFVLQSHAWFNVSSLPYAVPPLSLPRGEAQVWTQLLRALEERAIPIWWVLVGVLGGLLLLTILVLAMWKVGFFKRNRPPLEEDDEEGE
UniProt Q96AC1: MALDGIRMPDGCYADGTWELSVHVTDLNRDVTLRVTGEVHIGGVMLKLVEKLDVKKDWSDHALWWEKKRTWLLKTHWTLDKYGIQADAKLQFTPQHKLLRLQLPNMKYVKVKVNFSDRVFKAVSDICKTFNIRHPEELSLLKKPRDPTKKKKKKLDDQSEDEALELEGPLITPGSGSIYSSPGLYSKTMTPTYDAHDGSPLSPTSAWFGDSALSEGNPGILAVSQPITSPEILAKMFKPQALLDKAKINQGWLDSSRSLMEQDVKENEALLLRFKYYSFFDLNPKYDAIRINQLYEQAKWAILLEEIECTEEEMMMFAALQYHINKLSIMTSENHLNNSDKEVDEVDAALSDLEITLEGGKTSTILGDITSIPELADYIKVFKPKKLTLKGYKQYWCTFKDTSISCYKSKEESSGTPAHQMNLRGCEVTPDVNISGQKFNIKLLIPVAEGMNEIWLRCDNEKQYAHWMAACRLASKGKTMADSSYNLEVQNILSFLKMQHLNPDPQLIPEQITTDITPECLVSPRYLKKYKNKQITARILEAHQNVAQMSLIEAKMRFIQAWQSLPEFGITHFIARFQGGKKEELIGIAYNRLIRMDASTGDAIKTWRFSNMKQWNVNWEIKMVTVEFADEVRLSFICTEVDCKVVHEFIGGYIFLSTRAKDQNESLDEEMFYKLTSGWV
UniProt P26039: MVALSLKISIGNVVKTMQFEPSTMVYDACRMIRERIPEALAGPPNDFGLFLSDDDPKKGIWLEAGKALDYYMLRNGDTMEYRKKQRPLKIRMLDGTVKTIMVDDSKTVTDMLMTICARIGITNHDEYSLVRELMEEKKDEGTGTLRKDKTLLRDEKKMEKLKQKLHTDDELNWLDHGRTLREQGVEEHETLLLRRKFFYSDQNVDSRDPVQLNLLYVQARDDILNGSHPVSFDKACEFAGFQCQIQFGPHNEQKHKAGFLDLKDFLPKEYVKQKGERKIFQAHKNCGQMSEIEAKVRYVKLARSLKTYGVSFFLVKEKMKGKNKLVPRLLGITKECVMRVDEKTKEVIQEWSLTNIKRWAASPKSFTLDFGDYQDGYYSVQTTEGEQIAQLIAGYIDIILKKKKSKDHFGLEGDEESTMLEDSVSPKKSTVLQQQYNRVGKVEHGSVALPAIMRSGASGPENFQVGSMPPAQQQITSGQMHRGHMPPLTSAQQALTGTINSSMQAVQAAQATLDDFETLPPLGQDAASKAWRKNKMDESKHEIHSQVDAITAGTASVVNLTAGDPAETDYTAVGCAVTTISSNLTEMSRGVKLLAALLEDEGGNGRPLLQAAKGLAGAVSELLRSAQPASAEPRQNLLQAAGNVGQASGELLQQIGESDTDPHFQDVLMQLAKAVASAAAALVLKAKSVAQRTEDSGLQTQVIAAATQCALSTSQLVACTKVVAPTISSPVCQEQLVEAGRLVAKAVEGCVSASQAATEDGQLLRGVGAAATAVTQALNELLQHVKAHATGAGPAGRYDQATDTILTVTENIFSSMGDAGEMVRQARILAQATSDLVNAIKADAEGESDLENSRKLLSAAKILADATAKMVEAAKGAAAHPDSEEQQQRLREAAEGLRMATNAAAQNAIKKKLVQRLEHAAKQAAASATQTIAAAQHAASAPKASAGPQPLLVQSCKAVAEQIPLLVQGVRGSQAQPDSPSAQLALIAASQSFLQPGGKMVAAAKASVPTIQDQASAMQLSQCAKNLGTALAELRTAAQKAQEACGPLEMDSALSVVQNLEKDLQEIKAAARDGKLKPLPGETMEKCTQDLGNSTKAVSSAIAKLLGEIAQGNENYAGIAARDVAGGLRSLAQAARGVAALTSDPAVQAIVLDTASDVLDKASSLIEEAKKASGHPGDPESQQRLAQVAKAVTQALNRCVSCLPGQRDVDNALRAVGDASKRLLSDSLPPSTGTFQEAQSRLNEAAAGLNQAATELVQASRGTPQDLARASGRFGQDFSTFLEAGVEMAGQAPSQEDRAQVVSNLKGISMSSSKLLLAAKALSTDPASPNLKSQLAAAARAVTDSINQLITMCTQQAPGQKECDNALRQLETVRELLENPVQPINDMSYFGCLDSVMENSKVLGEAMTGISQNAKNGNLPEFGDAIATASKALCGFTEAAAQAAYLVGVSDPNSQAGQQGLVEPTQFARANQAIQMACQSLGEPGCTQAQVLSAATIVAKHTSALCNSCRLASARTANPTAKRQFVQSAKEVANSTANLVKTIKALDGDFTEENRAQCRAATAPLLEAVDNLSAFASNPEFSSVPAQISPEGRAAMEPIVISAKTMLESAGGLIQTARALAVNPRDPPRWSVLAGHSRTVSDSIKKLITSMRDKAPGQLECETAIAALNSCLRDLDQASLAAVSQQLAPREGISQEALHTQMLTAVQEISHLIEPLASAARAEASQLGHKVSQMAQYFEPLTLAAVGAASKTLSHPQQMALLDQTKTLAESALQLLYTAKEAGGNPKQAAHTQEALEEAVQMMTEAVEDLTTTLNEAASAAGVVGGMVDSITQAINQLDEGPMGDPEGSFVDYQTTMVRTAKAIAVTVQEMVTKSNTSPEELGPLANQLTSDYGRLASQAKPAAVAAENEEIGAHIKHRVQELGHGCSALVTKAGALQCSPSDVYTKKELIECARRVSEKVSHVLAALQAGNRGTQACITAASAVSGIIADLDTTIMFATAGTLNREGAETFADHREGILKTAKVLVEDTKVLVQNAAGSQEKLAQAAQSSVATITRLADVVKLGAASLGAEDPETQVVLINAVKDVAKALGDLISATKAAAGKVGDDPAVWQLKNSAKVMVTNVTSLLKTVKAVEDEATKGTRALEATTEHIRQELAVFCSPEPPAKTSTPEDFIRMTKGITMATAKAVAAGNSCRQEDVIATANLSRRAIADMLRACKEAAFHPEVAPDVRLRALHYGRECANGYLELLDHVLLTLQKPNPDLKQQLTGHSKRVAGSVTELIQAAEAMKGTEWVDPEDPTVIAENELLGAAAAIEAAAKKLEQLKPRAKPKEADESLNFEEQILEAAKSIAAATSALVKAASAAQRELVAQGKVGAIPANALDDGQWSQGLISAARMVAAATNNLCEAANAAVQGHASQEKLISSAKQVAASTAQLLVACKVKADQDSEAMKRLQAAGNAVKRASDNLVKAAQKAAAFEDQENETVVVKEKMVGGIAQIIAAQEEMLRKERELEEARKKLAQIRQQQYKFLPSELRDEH

Assay [1] deals with αIIb-VCβ3 (integrin αIIbβ3 with the C-terminal half of Venus fused to the C-terminus of αIIb) (UniProt P08514). Briefly: split reporter; BiFC of Venus halves (VN on talin or kindlin-2, VC on αIIb) in living CHO cells, read by flow cytometry; signal normalised to αIIbβ3 expression (antibody D57); doxycycline induction; also with kindlin-2 shRNA knock-down or over-expression of kindlins, THD or talin. A general note: A flow cytometer gives signals particle by particle.

The target is the same in assay [2]. The assay can be described thus: split reporter; BiFC in αIIb-VCβ3 CHO cells plated on fibrinogen for 45 min, fixed, stained with D57, deconvolution microscopy; ratio of BiFC to αIIbβ3 fluorescence at the membrane edge; control or kindlin-2 shRNA.

No constants are given. Whether binding was seen depends on the method and setting. In cells and extracts the contact can be indirect. Some entries that bind do so weakly or less than the wild type.

As to “VN-kindlin-2 (Venus N-terminal moiety fused to kindlin-2) (from UniProt Q96AC1 1-680)”, in assay [1], the binding result is on record as “binds”.

Consider “VN-talin (Venus N-terminal moiety fused to the N-terminus of talin) (from UniProt P26039 1-2541)”, for which the binding entry in assay [2] and in assay [1] was “binds” in each case.
